In publication PMC6819484:
No constants are given. Whether binding was seen depends on the method and setting. In cells and extracts the contact can be indirect. For some of these results: A result given as binding can be weak or reduced; the word gives no strength.

Chains of the proteins cited; added tags and fusions are not shown. Lines headed by an entry give the natural chain unless they say otherwise; changes in a name come on top. Residues count along the entry.
UniProt Q13705, residues 19-512: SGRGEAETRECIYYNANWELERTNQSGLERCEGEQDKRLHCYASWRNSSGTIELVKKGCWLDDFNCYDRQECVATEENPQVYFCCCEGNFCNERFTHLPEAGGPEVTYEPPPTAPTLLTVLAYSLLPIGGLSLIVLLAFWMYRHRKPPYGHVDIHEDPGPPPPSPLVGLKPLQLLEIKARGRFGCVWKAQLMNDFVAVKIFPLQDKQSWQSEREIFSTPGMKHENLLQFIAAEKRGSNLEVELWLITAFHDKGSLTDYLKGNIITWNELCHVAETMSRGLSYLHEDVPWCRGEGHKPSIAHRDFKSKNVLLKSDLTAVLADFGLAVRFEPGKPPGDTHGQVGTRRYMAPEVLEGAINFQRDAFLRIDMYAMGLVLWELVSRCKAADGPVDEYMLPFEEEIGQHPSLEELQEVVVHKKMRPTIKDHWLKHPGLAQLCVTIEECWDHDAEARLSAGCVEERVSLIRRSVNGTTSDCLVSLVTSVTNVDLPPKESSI
UniProt Q13873, residues 27-1038: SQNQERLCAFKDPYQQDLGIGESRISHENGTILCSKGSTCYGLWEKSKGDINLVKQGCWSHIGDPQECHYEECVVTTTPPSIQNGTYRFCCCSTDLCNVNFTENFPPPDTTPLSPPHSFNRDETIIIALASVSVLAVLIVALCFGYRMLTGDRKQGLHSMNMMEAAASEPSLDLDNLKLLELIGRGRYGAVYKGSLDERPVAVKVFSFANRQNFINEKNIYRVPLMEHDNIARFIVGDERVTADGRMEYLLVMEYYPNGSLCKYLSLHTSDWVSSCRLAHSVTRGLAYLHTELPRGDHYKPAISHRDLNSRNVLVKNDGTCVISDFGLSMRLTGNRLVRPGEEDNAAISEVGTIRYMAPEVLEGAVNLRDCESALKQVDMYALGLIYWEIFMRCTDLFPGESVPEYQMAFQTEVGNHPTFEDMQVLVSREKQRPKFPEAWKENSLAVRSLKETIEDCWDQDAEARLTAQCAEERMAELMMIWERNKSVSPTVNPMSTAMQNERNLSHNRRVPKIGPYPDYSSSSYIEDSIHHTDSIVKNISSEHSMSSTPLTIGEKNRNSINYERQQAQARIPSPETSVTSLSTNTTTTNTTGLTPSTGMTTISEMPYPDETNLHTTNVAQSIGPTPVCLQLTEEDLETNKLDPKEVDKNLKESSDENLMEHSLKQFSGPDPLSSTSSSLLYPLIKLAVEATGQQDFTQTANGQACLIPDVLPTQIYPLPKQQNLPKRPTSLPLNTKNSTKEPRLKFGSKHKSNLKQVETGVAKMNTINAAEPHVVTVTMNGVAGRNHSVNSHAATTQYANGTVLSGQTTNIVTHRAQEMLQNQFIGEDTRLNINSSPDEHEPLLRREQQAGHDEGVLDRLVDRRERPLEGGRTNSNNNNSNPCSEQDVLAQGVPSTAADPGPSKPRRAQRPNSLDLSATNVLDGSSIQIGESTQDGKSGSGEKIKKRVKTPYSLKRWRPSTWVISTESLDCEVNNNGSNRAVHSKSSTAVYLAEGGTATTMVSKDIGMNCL
UniProt P12645: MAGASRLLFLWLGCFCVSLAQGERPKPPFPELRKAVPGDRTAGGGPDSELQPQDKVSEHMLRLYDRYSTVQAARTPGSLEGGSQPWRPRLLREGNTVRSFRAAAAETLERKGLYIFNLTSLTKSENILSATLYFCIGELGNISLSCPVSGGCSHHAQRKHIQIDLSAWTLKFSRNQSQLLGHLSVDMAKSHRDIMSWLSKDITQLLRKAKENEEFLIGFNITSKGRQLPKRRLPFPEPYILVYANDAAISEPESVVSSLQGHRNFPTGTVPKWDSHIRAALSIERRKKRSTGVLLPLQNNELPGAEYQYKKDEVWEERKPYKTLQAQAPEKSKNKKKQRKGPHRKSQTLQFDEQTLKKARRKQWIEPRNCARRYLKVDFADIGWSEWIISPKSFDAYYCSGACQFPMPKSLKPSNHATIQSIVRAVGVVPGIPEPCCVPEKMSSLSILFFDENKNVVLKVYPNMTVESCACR

How the values were obtained:
[1] = target: Myc-tagged Activin Receptor II B (ActRIIB-pDest-C-Myc) (human) (UniProt Q13705); experiment: co-IP; KM12 cells transfected with ActRIIB alone, BMPR2 alone, or both; lysates precipitated with anti-Myc or anti-Flag antibody; endogenous BMP3 detected by western blot
[2] = target: Flag-tagged Bone Morphogenetic Protein receptor 2 (BMPR2-pENER-C-Flag) (human) (UniProt Q13873); experiment: as above
[3] = target: Myc-tagged Activin Receptor II B (ActRIIB-pDest-C-Myc) (human) (UniProt Q13705); experiment: co-IP; BMP3 co-expressed with ActRIIB or BMPR2 in HCT116 cells, 48 h; lysates precipitated with anti-Myc or anti-Flag antibody; western blot
[4] = target: Flag-tagged Bone Morphogenetic Protein receptor 2 (BMPR2-pENER-C-Flag) (human) (UniProt Q13873); experiment: as above

| Substance | binding [1] | binding [2] | binding [3] | binding [4] |
| --- | --- | --- | --- | --- |
| Bone Morphogenetic Protein 3 (endogenous, KM12 cells) (from UniProt P12645) (ligand) | binds | no binding |  |  |
| Bone Morphogenetic Protein 3 (exogenous, stably expressed in HCT116 cells) (from UniProt P12645) (ligand) |  |  | binds | no binding |
